Source: PMC12903969, “Discovery of a Novel and Potent Kir4.1 Inhibitor as a Safe and Rapid‐Onset Antidepressant Agent in Mice” (Advanced Science, 2025)

Tested on: MDA-MB-468 breast cancer cells
Assay: Cytotoxicity test (CCK-8)
Format: cell-based
Conditions: anti-proliferation IC50 in MDA-MB-468 / inhibition IC50 against Kir4.1
Procedure: Cytotoxicity of all the tested compounds was determined using the cell counting kit‐8 (CCK‐8) assay kit (Beyotime, Shanghai, China). Briefly, MDA‐MB‐468 was cultured in L15 medium and plated in 96‐well plates at a density of 12,000 cells per well for 24 h at 37 °C in a 5% CO2 incubator. The tested compounds were dissolved in DMSO and diluted with culture medium (DMSO final concentration < 0.4%). Then the cells were treated with compounds (0.41, 1.23, 3.70, 11.11, 33.33, 100.00 µM) for 48 h. After treatments, removal of the supernatant liquor, 100 µL of new media diluted CCK‐8 solution (10% CCK‐8) was added into each well and incubated at 37 °C for 2 h. The absorbance of the mixture was directly measured at 450 nm. The results are presented as a percentage of the control.

c1ccc2c(c1)oc1ccc(Nc3ccnc(NCCCN4CCOCC4)n3)cc12 [JX3212, N^4-(dibenzo[b,d]furan-2-yl)-N^2-(3-morpholinopropyl)pyrimidine-2,4-diamine]
preliminary therapeutic index (TI): ≈ 49
